Laboratory results published in PubChem BioAssay AID2662 (National Center for Advancing Translational Sciences (NCATS), 2010).
In all, about 290,000 compounds went through this assay and about 110 (0.038%) were called active. The shares of active, inactive and inconclusive entries below differ from those in the screen. Calls come from the whole dose curve; as a rule, active = well fitted inhibition curve with a large enough effect in the polarisation, with a control signal flat (not every such curve was filed as active); inconclusive = small, poorly fitted or top-dose-only effect, or effect the other way, or a change in a side signal; inactive = no such curve, though single readings can be large or run the other way; the % refers to the polarisation. Potencies beside an inconclusive call are fits to weak or partial responses and may not hold up. “Side channel” marks fits to a control or component signal instead of the main read-out.

The chains behind the UniProt entries cited, without tags or fusion partners.
UniProt Q03164, whole entry, looked up: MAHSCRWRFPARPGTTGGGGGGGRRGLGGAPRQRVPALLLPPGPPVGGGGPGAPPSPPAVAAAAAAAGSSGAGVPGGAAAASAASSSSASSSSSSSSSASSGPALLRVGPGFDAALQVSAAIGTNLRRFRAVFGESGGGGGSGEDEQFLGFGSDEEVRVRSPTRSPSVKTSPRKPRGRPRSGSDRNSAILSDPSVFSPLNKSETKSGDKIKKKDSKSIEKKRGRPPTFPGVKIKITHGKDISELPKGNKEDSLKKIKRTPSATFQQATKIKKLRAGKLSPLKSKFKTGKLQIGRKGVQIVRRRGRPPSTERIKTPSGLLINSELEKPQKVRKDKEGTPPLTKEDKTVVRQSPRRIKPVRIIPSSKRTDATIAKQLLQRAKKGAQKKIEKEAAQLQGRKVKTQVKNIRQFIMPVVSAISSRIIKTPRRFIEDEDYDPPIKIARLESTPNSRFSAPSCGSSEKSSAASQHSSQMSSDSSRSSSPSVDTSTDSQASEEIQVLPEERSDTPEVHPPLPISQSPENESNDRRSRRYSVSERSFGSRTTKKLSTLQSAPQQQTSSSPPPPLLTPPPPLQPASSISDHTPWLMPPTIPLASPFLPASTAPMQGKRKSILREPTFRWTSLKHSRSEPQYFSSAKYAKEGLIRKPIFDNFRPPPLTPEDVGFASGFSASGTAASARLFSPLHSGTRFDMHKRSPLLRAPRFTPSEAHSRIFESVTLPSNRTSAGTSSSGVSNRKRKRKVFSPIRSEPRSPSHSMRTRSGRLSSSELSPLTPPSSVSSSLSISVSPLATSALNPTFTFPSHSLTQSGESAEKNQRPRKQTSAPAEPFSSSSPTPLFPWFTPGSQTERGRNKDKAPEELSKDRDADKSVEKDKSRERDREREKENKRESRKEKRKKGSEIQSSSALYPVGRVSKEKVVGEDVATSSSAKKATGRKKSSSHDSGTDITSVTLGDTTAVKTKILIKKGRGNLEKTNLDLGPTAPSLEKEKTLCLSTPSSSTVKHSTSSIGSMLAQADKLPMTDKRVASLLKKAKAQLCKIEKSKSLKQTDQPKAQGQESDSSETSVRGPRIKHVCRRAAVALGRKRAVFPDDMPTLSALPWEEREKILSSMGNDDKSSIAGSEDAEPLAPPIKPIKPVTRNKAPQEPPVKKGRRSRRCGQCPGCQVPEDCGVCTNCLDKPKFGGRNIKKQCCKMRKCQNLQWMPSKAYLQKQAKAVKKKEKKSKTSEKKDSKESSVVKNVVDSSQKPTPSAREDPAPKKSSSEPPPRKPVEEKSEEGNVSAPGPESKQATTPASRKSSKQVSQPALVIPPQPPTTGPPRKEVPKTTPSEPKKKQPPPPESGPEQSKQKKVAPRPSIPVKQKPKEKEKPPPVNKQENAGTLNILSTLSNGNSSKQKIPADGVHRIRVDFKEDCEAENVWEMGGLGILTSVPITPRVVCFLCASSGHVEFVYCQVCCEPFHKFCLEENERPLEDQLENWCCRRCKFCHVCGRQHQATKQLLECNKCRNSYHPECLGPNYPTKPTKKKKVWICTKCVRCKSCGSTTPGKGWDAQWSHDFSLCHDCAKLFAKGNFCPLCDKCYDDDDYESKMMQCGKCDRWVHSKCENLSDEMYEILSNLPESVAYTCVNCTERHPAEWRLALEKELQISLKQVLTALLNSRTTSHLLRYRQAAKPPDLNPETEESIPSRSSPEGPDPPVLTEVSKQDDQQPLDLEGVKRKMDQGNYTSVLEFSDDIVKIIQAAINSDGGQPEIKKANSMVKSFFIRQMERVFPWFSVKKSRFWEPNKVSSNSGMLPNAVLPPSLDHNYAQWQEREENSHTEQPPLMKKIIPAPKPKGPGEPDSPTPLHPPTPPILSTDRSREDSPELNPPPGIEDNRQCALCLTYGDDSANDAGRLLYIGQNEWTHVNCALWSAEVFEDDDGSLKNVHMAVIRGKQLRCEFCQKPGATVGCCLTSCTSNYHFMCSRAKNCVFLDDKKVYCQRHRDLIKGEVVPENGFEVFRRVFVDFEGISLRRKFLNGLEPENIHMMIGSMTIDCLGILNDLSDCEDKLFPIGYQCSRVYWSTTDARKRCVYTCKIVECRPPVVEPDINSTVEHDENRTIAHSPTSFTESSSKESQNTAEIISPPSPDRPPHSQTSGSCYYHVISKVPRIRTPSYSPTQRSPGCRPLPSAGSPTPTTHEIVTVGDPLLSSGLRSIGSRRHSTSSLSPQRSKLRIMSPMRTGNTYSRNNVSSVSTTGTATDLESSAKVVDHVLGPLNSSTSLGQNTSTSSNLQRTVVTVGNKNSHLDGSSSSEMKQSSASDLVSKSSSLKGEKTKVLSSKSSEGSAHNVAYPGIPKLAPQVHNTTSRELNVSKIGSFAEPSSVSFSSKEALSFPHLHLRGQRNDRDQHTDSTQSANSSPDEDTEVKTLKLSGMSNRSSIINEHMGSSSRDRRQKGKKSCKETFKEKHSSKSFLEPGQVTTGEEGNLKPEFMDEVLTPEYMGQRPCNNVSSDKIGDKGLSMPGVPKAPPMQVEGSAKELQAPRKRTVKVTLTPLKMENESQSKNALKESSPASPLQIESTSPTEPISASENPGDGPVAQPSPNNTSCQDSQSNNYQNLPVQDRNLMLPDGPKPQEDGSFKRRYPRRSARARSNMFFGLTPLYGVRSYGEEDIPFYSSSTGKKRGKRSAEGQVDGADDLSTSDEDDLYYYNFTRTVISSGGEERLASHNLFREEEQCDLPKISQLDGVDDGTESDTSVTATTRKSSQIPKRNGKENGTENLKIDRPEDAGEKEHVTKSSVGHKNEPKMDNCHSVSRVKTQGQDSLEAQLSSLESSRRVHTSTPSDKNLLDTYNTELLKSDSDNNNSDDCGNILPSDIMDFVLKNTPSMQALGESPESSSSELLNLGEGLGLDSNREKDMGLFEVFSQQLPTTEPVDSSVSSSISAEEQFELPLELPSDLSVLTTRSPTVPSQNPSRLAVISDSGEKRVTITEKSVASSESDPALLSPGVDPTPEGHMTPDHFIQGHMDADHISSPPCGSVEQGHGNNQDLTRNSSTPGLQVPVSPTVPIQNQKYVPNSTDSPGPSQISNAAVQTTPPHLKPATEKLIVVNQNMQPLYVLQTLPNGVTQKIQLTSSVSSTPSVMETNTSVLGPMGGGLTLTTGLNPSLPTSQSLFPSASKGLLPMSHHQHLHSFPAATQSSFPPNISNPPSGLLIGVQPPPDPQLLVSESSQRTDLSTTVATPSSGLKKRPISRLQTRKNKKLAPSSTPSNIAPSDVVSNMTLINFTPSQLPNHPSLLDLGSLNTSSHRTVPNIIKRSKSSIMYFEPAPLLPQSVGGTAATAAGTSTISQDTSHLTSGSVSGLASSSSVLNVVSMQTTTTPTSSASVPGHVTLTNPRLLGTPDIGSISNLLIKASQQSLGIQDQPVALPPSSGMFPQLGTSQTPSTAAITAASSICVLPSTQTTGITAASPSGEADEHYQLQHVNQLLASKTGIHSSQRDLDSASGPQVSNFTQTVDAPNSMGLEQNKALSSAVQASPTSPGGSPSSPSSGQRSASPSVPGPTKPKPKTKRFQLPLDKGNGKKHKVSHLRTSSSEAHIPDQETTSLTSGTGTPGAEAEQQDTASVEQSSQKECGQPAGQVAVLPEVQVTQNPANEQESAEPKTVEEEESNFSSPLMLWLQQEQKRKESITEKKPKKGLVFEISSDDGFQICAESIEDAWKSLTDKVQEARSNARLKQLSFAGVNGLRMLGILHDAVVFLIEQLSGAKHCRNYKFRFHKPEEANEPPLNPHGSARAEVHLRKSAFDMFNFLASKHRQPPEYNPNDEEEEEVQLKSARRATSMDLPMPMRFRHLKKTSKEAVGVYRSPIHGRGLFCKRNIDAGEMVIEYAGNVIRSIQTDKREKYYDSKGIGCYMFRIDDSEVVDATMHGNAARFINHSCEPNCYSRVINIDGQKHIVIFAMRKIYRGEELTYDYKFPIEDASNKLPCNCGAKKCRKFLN

Target: Histone-lysine N-methyltransferase 2A (Homo sapiens) (UniProt Q03164)
Assay: qHTS Fluorescence Polarization Assay for Inhibitors of MLL CXXC domain - DNA interaction
Conditions: MLL-CXXC / FITC-HOXA9 DNA fluorescence polarization; series mostly up to 115 µM
Summary of the method: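 Fluorescence polarization: 7 uM MLL-CXXC (stock) preincubated 5 min with compounds, then 50 nM fluorescein-HOX-A9 DNA (stock) added; 30 min ambient. Buffer 50 mM Tris-HCl pH 7.5, 50 mM NaCl, 1 mM DTT, 0.05% BSA.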
Potency is the fitted concentration of half-maximal effect.

| SMILES | Potency |
| --- | --- |
| O=C(Cc1ccc(Cl)c(Cl)c1)N1CCOCC1 | inconclusive: 70.8 µM [fluorescent, side channel, single point] |
| COc1cnc(-c2ccccn2)[nH]c1=O | inactive |
| COc1ccc(-c2cc(C(F)(F)F)n3nc(C(=O)N(C)Cc4ccccc4)cc3n2)cc1OC | inconclusive: 35.5 µM [fluorescent, side channel, partial curve] |
| CC1(C)CC(=O)c2cc(C(=O)NCc3ccco3)c(=O)n(-c3ccccc3)c2C1 | inactive |
| O=C(O)c1ccc(/C=C/c2nc3ccccc3c(=O)[nH]2)cc1 | inconclusive: 8.91 µM [inhibitor, single point] |
| COc1cccc(NC(=O)c2cc3ccccc3oc2=O)c1 | inactive |
| Nc1ccc(/C=C/C(=O)c2cccs2)cc1 | inconclusive: 35.5 µM [fluorescent, side channel, partial curve] |
| CCC1CCCCN1CC(C)(C)NS(=O)(=O)c1ccccc1 (stereo not given) | inactive |
| CCN1/C(=C/C=C/c2sc3ccccc3[n+]2CC)Sc2ccccc21 | inconclusive: 35.5 µM [quencher, side channel, single point] |
| Cc1cccc(NS(=O)(=O)c2ccc3c(c2)CCN3C(=O)CCC(=O)O)c1 | inconclusive: 89.1 µM [inhibitor, single point] |
| CCN(CC)C(=O)CCn1nc(-c2ccc(C)cc2)c2ccccc2c1=O | inconclusive: 31.6 µM [fluorescent, side channel, partial curve] |
| CCc1ccc(NC(=O)NNC(=O)c2cc3ccccc3cc2O)cc1 | inconclusive: 15.8 µM [fluorescent, side channel, single point] |
| CCc1ccc(N2CCN(C(=O)c3ccc4c(c3)OCO4)CC2)cc1 | inconclusive: 14.1 µM [quencher, side channel, single point] |
| CC1Cc2ccccc2N1NC(=O)c1ccc(Cl)c(S(N)(=O)=O)c1 (stereo not given) | inactive |
| COc1ccc2oc(C(=O)Nc3nc4ccccc4[nH]3)c(C)c2c1 | inconclusive: 8.91 µM [inhibitor, partial curve] |
| CC1CCN(S(=O)(=O)c2ccc(C(=O)N3CCOCC3)cc2)CC1 | inconclusive: 15.8 µM [fluorescent, side channel, single point] |
| COc1ccc(Nc2oc(-c3ccccc3)nc2C#N)cc1 | inconclusive: 35.5 µM [fluorescent, side channel, single point] |
| O=c1[nH]c(/C=C\c2cccc(C(F)(F)F)c2)nc(O)c1[N+](=O)[O-] | inconclusive: 35.5 µM [inhibitor, partial curve] |
| Cc1ccc(C(=O)n2cnnc2N)cc1C | inconclusive: 70.8 µM [fluorescent, side channel, single point] |
| COC(=O)c1c(NC(=O)Cn2nc(C(F)F)cc2C(F)F)sc(C)c1C | inactive |
| CC1CCC(C(C)C)C(OCC(O)C[N+]2(C)CCCCC2)C1 (stereo not given) | inactive |
| O=C(NCc1ccco1)C(c1cccs1)N(Cc1ccccc1)C(=O)Cn1nnc2ccccc21 (stereo not given) | inconclusive: 28.2 µM [fluorescent, side channel, partial curve] |

Individual results from the results shown:
For Potency, O=C(O)c1ccc(/C=C/c2nc3ccccc3c(=O)[nH]2)cc1 shows inconclusive: 8.91 µM [inhibitor, single point]
For Potency, COc1ccc2oc(C(=O)Nc3nc4ccccc4[nH]3)c(C)c2c1 shows inconclusive: 8.91 µM [inhibitor, partial curve]
For Potency, CCN(CC)C(=O)CCn1nc(-c2ccc(C)cc2)c2ccccc2c1=O shows inconclusive: 31.6 µM [fluorescent, side channel, partial curve]
For Potency, COc1cccc(NC(=O)c2cc3ccccc3oc2=O)c1 shows inactive
For Potency, CCc1ccc(N2CCN(C(=O)c3ccc4c(c3)OCO4)CC2)cc1 shows inconclusive: 14.1 µM [quencher, side channel, single point]

Further structures follow.

| SMILES | Potency |
| --- | --- |
| O=C(O)c1cc(S(=O)(=O)N(Cc2ccccc2)c2ccccc2Cl)ccc1Cl | inconclusive: 31.6 µM [fluorescent, side channel, partial curve] |
| O=C(O)c1ccc(Cl)c2c1C1C=CCC1C(c1ccccn1)N2 (stereo not given) | inconclusive: 22.4 µM [inhibitor, partial curve] |
| Nc1ccccc1SCc1ccccc1 | inactive |
| O=C(Nc1nc(-c2ccccn2)cs1)c1ccc(Cl)s1 | inactive |
| COc1ccc(/C=C(\C#N)C(=O)C(C)(C)n2cncn2)cc1 | inconclusive: 50.1 µM [inhibitor, single point] |
| Cc1cc(OC(=O)c2ccc(S(=O)(=O)N(C)C)cc2)c([N+](=O)[O-])c(=O)[nH]1 | inactive |
| CCC(Sc1ncnc2c1c(-c1ccccc1)cn2-c1ccc(OC)cc1)C(=O)OC (stereo not given) | inactive |
| CC(=O)N1CCOc2ccc(S(=O)(=O)N(C)c3cccc(C)c3)cc21 | inactive |
| CC1=CC(C)(C)N2C(=O)C(=O)c3cc(OC(=O)c4ccco4)cc1c32 | inactive |
| COc1ccccc1NC(=S)NC(NC(=O)CC(C)C)C(Cl)(Cl)Cl (stereo not given) | inconclusive: 8.91 µM [inhibitor, single point] |
| O=C(CC12CC3CC(CC(C3)C1)C2)NC(=S)NCc1ccco1 | inconclusive: 14.1 µM [fluorescent, side channel, single point] |
| CCOC(=O)c1ccc(NC(=O)CC2C(=O)OCCN2CC)cc1 (stereo not given) | inconclusive: 7.94 µM [fluorescent, side channel, full curve, poor fit] |
| Nc1ccc2c(c1)-c1ccccc1S(=O)(=O)N2 | inactive |
| Fc1ccc(Nc2c3c(nc4ccccc24)CCC3)cc1 | inactive |
| Cc1cc(OC(=O)c2ccccc2C(F)(F)F)c([N+](=O)[O-])c(=O)[nH]1 | inactive |
| COC(=O)c1ccc(NC(=O)CSC2=NC(=O)C(c3ccccc3)C(=O)N2)cc1 (stereo not given) | inconclusive: 31.6 µM [fluorescent, side channel, single point] |
| COC(=O)c1c(N2C(=O)[C@H]3[C@@H](C2=O)[C@]2(C(=O)Nc4c(C)cccc42)N2CCC[C@@H]32)sc(C)c1C | inconclusive: 1.26 µM [fluorescent, side channel, full curve, poor fit] |
| C=CCN1CCN(C(c2ccccc2OC)c2nnnn2C(C)(C)C)CC1 (stereo not given) | inconclusive: 35.5 µM [quencher, side channel, single point] |
| Oc1ccc2ccccc2c1-c1sc(Nc2ccccc2)n[n+]1-c1ccc(F)cc1 | inconclusive: 6.31 µM [fluorescent, side channel, full curve] |
| COC(=O)c1ccc(/C=C/c2ccc3cccc(OC)c3n2)cc1 | inconclusive: 14.1 µM [inhibitor, single point] |
| COc1cc(NS(C)(=O)=O)ccc1Nc1c2ccccc2nc2ccccc12 | inconclusive: 15.8 µM [quencher, side channel, partial curve] |
| COc1cc(/C=C2\C(=O)NN(c3ccccc3)C2=O)ccc1OCC(N)=O | inconclusive: 25.1 µM [inhibitor, partial curve] |

| SMILES | Potency |
| --- | --- |
| OCCNc1nc(Nc2ccc(Cl)c(Cl)c2)nc2ccccc12 | inconclusive: 31.6 µM [quencher, side channel, partial curve] |
| CC(C)CCNC(=O)CSc1nc2ccccc2s1 | inconclusive: 3.16 µM [fluorescent, side channel, partial curve] |
| COC(=O)CSc1nc(N)c(C#N)c(-c2ccco2)c1C#N | inactive |
| O=C(O)c1ccc(S(=O)(=O)/N=C2\C=C(Nc3ccccc3F)C(=O)c3ccccc32)cc1 | inconclusive: 22.4 µM [inhibitor, partial curve] |
| Cc1ccc(-n2[nH]c(C)c(C=Nc3ccc4[nH]c(=O)[nH]c4c3)c2=O)cc1C | inconclusive: 15.8 µM [inhibitor, full curve, poor fit] |
| O=C1c2c(O)cc(O)cc2O[C@@]12c1c(cc(O)c3c1O[C@H](c1ccc(O)cc1)[C@@H](O)C3)O[C@@H]2c1ccc(O)cc1 | inconclusive: 20 µM [inhibitor, partial curve] |
| O=C(C/C=N\OCc1ccc([N+](=O)[O-])cc1)Nc1ccccc1 | inconclusive: 44.7 µM [fluorescent, side channel, single point] |
| O=C(O)c1c[nH]ccc1=O | inconclusive: 15.8 µM [fluorescent, side channel, single point] |
| CCN(CC(=O)Nc1cc(Cl)ccc1C)C(=O)COc1cccc2c1OC(C)(C)C2 | inconclusive: 11.2 µM [fluorescent, side channel, single point] |
| CC(NC(=O)c1ccccc1NC(=O)c1ccncc1)c1ccccc1 (stereo not given) | inconclusive: 35.5 µM [fluorescent, side channel, single point] |
| CC(C)N1C(=O)/C(=C\c2nc3ccccc3c(=O)[nH]2)c2ccccc21 | inactive |
| COc1cccc(/C=N/NC(=O)CNC(=O)CCc2ccccc2)c1O | inactive |
| COc1ccc(/C=C/C(=O)O/N=C(\N)c2ccccc2)cc1OC | inconclusive: 28.2 µM [inhibitor, partial curve] |
| COc1ccc(/C=C2/C(=O)N(c3cccc(F)c3)N=C2C)c(OC)c1 | inconclusive: 17.8 µM [inhibitor, partial curve] |
| CCOc1ccccc1-c1c2cc(O)c(=O)cc-2oc2cc(O)c(O)cc12 | inconclusive: 31.6 µM [fluorescent, side channel, partial curve] |
| O=C(NCc1ccc2c(c1)OCO2)C(=O)NCC1OCCN1S(=O)(=O)c1ccc(Br)cc1 (stereo not given) | inconclusive: 22.4 µM [fluorescent, side channel, partial curve] |
| Cc1nc2nc(-c3ccc(Cl)cc3)cn2nc1C | inactive |
| C=CCNc1oc(-c2ccc(OC)cc2)nc1C#N | inactive |
| COc1cccc(-c2c(C(=O)N/N=C/C3CC=CCC3)nnn2-c2nonc2N)c1 (stereo not given) | inconclusive: 12.6 µM [fluorescent, side channel, partial curve] |
| Cc1cccc(N=Nc2ccc(O)c3ncccc23)c1 | inactive |
| Cc1ccc(NC(=O)[C@H](CC(C)C)NC(=O)[C@@H]2Cc3ccccc3CN2)cc1 | inconclusive: 63.1 µM [fluorescent, side channel, single point] |
